Values of other authors in patent US9561225B2, “Pharmaceutical formulation containing opioid agonist, opioid antagonist and gelling agent” (Purdue Pharma L.P., priority 2001, dated 2017).
Where a name gives a salt, the structure may show the parent alone.

Assays:
[1] = hydrochloride salt
[2] = oral administration

For `O=C1CC[C@@]2(O)[C@H]3Cc4ccc(O)c5c4[C@@]2(CCN3CC2CC2)[C@H]1O5` [hydrochloride salt of naltrexone, naltrexone hydrochloride], the solubility in water [1] is given as “about 100 mg/cc”.

For `O=C1CC[C@@]2(O)[C@H]3Cc4ccc(O)c5c4[C@@]2(CCN3CC2CC2)[C@H]1O5` [naltrexone], the oral bioavailability [2] is listed as 5-40%.
